This is an account of results in patent US11116802B2, “Extract effective in treating drug addiction and preparation method therefor” (GUANGXI JIUFU BIOTECHNOLOGY CO., LTD, priority 2016, dated 2021).

This series is described as follows: Physical dependence test: weight loss before and 1 h after naloxone-precipitated withdrawal. The class given is in vivo, Sprague-Dawley rats. As to conditions: morphine hydrochloride s.c. twice a day, 5 mg/kg to 60 mg/kg, 7 days; naloxone 5 mg/kg on day 8; before and 1 h after withdrawal. The procedure: 30 Sprague-Dawley rats (female:male 1:1) were randomly divided into 3 groups, including a morphine control group, an Agriolima agrestis extract group, and a negative control group, each group having 10 animals. Both the morphine control group and the Agriolima agrestis extract group were administered with increasing dose. The morphine control group was injected subcutaneously with morphine hydrochloride twice a day. According to the principle of increasing dose, the dosage of morphine was increased upon each administration from 5 mg/kg to 60 mg/kg, and continuously administered until the 7th day. The Agriolima agrestis extract group was administered twice a day by oral gavage with increasing dose. The dosage was increased daily from […] to 3.0 g/kg and continuously administered until the 7th day. The negative control group was given the same volume of vegetable oil daily, and the administration time and frequency were the same as those in the Agriolima agrestis extract group. […]

Regarding `CN1CC[C@]23c4c5ccc(O)c4O[C@H]2[C@@H](O)C=C[C@H]3[C@H]1C5.Cl` [Morphine, morphine hydrochloride], the Weight loss is 9.5 ± 3.62 g.
